Measured data: PubChem BioAssay AID720505 (Drosophila RNAi Screening Center, 2013)
The screen tested about 20,000 reagents; below is an unselected part of those with a known target gene and a result. Over the whole deposit, about 2,100 (10%) are marked active. 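Raw plate signals without normalisation; calls rest on control-based scores that were not deposited; replicate 2 separates called from uncalled poorly.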 A plus sign joins genes that one reagent is predicted to hit. Not given: the amount of reagent, the time to read-out.

Assay: 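Knock-downs that reduce calcium influx once internal stores are emptied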 (primary screen)
Cell system: Drosophila S2R+ cells
Reagent: long dsRNA against Drosophila genes
Challenge: thapsigargin (2 µM) in calcium-free buffer to empty internal stores, then 2 mM calcium added back
Measured: 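Stores emptied by 2 µM thapsigargin without calcium, then 2 mM calcium re-added; fluo-4 fluorescence followed by FLIPR in 384-well plates, per-well averaged endpoint, raw; two screen passes, some wells retested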
Direction: calcium signal and retest calcium signal: higher = more calcium entry after store depletion
Call rule: 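About 1500 genes called as lowering calcium entry, by varying amounts, judged against per-plate control wells with STIM1 as positive and Rho1 as negative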
Calls: active = called as lowering calcium entry; inactive = not called

| gene knocked down | DRSC id | calcium signal, replicate 1 | calcium signal, replicate 2 | retest calcium signal, replicate 1 | retest calcium signal, replicate 2 | activity call |
| --- | --- | --- | --- | --- | --- | --- |
| CG14304 | DRSC14783 | 182 | 112 | – | – | inactive |
| CG8852 | DRSC00719 | 151 | 85.5 | – | – | inactive |
| CG42502 + CG10570 | DRSC02071 | 77.1 | 83.7 | – | – | inactive |
| Rab4 | DRSC07524 | 131 | 91.8 | – | – | inactive |
| Cpr67B (Cuticular protein 67B) | DRSC10373 | 96.4 | 152 | – | – | inactive |
| CG4278 | DRSC02741 | 91.4 | 122 | – | – | inactive |
| bru1 (bruno 1) | DRSC01234 | 72.6 | 108 | – | – | active |
| bru1 (bruno 1) | DRSC01236 | 268 | 130 | – | – | inactive |
| bru1 (bruno 1) | DRSC01237 | 204 | 105 | – | – | inactive |
| bru1 (bruno 1) | DRSC01238 | 155 | 92.4 | – | – | inactive |
| bru1 (bruno 1) | DRSC03485 | 64 | 109 | – | – | active |
| msn (misshapen) | DRSC08498 | 84 | 101 | – | – | inactive |
| uncNacbeta | DRSC00326 | 108 | 132 | – | – | inactive |
| CG16826 | DRSC02527 | 102 | 106 | – | – | inactive |
| Gpb5 (Glycoprotein hormone beta 5) | DRSC21241 | 110 | 107 | – | – | inactive |
| Nab2 (Nuclear polyadenosine RNA-binding 2) | DRSC14158 | 160 | 255 | – | – | inactive |
| Fbw5 (F-box and WD repeat domain containing 5) | DRSC03146 | 155 | 92.2 | – | – | inactive |
| CG12589 | DRSC12215 | 111 | 99.2 | – | – | inactive |
| dsf (dissatisfaction) | DRSC03524 | 133 | 121 | – | – | inactive |
| Tsen54 (tRNA splicing endonuclease subunit 54) | DRSC10527 | 82.2 | 109 | – | – | inactive |
| mRpL40 (mitochondrial ribosomal protein L40) | DRSC15749 | 140 | 94.1 | – | – | inactive |
| Vps50 (Vacuolar protein sorting 50) | DRSC06910 | 142 | 129 | – | – | inactive |
| Cirl (Calcium-independent receptor for alpha-latrotoxin) | DRSC07227 | 134 | 165 | – | – | inactive |
| Cirl (Calcium-independent receptor for alpha-latrotoxin) | DRSC21942 | 109 | 257 | – | – | inactive |
| Cirl (Calcium-independent receptor for alpha-latrotoxin) | DRSC23235 | 102 | 139 | – | – | inactive |
| MAGE | DRSC12504 | 77.7 | 139 | – | – | active |
| Sbp2 (SECIS-binding protein 2) | DRSC10766 | 50.1 | 89.9 | – | – | active |
| 4E-T (eIF4E-Transporter) | DRSC17201 | 121 | 157 | – | – | inactive |
| 4E-T (eIF4E-Transporter) | DRSC17208 | 96.8 | 128 | – | – | inactive |
| CG3513 | DRSC00608 | 136 | 114 | – | – | inactive |
| ND-MWFE (NADH dehydrogenase (ubiquinone) MWFE subunit) | DRSC06364 | 119 | 155 | – | – | inactive |
| Rab9D + Rab9Fa + Rab9E | DRSC19853 | 113 | 83.2 | – | – | inactive |
| CG13930 | DRSC08399 | 93.6 | 64.9 | – | – | inactive |
| p38c (p38c MAP kinase) | DRSC22939 | 132 | 156 | – | – | inactive |
| CG3376 | DRSC04362 | 141 | 93.1 | – | – | inactive |
| spz3 (spatzle 3) | DRSC02391 | 101 | 174 | – | – | inactive |
| spz3 (spatzle 3) | DRSC03008 | 88 | 131 | – | – | inactive |
| Cyp6a15Psi (pseudo) | DRSC07377 | 128 | 127 | – | – | inactive |
| CG10344 | DRSC04066 | 105 | 154 | – | – | inactive |
| CG15449 | DRSC20521 | 183 | 86.4 | – | – | inactive |
| CG9747 | DRSC16554 | 86.2 | 126 | 8135 | 191 | inactive |
| Ndc80 | DRSC20221 | 99.7 | 120 | – | – | inactive |
| Ndc80 | DRSC21726 | 118 | 79.7 | – | – | inactive |
| Lsp2 (Larval serum protein 2) | DRSC09841 | 96.7 | 97.3 | – | – | inactive |
| Lsp2 (Larval serum protein 2) | DRSC11216 | 96.1 | 87.5 | – | – | inactive |
| Upf3 | DRSC04092 | 88.4 | 101 | – | – | inactive |
| CG12483 | DRSC08278 | 70.2 | 137 | – | – | inactive |
| CG4286 | DRSC04459 | 79.5 | 96.3 | – | – | inactive |
| tw (twisted) | DRSC18537 | 149 | 110 | – | – | inactive |
| La (La autoantigen-like) | DRSC03358 | 118 | 89.2 | – | – | inactive |
| CG1909 | DRSC17150 | 114 | 83.1 | – | – | inactive |
| BomS4 (Bomanin Short 4) | DRSC22509 | 80.3 | 157 | – | – | inactive |
| Got1 (Glutamate oxaloacetate transaminase 1) | DRSC07177 | 165 | 114 | – | – | inactive |
| RpL39 (Ribosomal protein L39) | DRSC04651 | 43.3 | 97.4 | – | – | active |
| Argl + CG9515 | DRSC03243 | 95 | 105 | – | – | inactive |
| Argl + CG9515 | DRSC03245 | 142 | 176 | – | – | inactive |
| vari (varicose) | DRSC03202 | 173 | 103 | – | – | inactive |
| CG30161 | DRSC22141 | 51.8 | 170 | – | – | active |
| Edg78E (Ecdysone-dependent gene 78E) | DRSC11863 | 68.2 | 140 | – | – | active |
| CG11454 | DRSC00310 | 86.2 | 106 | – | – | inactive |
| Pop4 (POP4 ribonuclease P/MRP subunit) | DRSC10955 | 86.9 | 79.1 | – | – | inactive |
| HSPBAP1 (HSPB1 associated protein 1) | DRSC14567 | 105 | 80.8 | – | – | inactive |
| CG3021 | DRSC18165 | 99.4 | 146 | – | – | inactive |
| CG3021 | DRSC18652 | 108 | 139 | – | – | inactive |
| Hmgcl (3-Hydroxymethyl-3-methylglutaryl-CoA lyase) | DRSC02051 | 70.1 | 159 | – | – | active |
| Cyt-b5-r (Cytochrome b5-related) | DRSC03308 | 89.2 | 85.7 | – | – | inactive |
| Jon65Aiv (Jonah 65Aiv) | DRSC10644 | 58.9 | 66 | – | – | inactive |
| Rsph3 (Radial spoke head protein 3) | DRSC09696 | 80.7 | 173 | – | – | inactive |
| Rsph3 (Radial spoke head protein 3) | DRSC10211 | 118 | 75.7 | – | – | inactive |
| CG31688 + CG31687 | DRSC02116 | 216 | 113 | – | – | inactive |
| CG13029 | DRSC09909 | 69 | 199 | – | – | inactive |
| Ih (I[[h]] channel) | DRSC05477 | 92.6 | 107 | – | – | inactive |
| Ih (I[[h]] channel) | DRSC07445 | 202 | 154 | – | – | inactive |
| Ih (I[[h]] channel) | DRSC22956 | 112 | 184 | – | – | inactive |
| jar (jaguar) | DRSC16974 | 152 | 173 | – | – | inactive |
| Hexo2 (Hexosaminidase 2) | DRSC18671 | 264 | 88.1 | – | – | inactive |
| CG32246 | DRSC08115 | – | – | – | – | active |
| mdu (meduse) | DRSC19860 | 62.3 | 88.5 | – | – | active |
| mdu (meduse) | DRSC23192 | 123 | 162 | – | – | inactive |
| CG13640 | DRSC14639 | 108 | 90.1 | – | – | inactive |
| Jhbp5 (Juvenile hormone binding protein 5) | DRSC14240 | 144 | 146 | – | – | inactive |
| Graf (GTPase regulator associated with FAK) | DRSC20131 | 164 | 134 | – | – | inactive |
| CG12848 | DRSC04128 | 173 | 183 | – | – | inactive |

Not a retest: an excerpt of the list.
| gene knocked down | DRSC id | calcium signal, replicate 1 | calcium signal, replicate 2 | retest calcium signal, replicate 1 | retest calcium signal, replicate 2 | activity call |
| --- | --- | --- | --- | --- | --- | --- |
| CG13930 | DRSC08399 | 93.6 | 64.9 | – | – | inactive |
| p38c (p38c MAP kinase) | DRSC22939 | 132 | 156 | – | – | inactive |
| CG3376 | DRSC04362 | 141 | 93.1 | – | – | inactive |
| spz3 (spatzle 3) | DRSC02391 | 101 | 174 | – | – | inactive |
| spz3 (spatzle 3) | DRSC03008 | 88 | 131 | – | – | inactive |
| Cyp6a15Psi (pseudo) | DRSC07377 | 128 | 127 | – | – | inactive |
| CG10344 | DRSC04066 | 105 | 154 | – | – | inactive |
| CG15449 | DRSC20521 | 183 | 86.4 | – | – | inactive |
| CG9747 | DRSC16554 | 86.2 | 126 | 8135 | 191 | inactive |
| Ndc80 | DRSC20221 | 99.7 | 120 | – | – | inactive |
| Ndc80 | DRSC21726 | 118 | 79.7 | – | – | inactive |
